PubChem BioAssay AID504791 | Drosophila RNAi Screening Center, 2011
Aim: 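Genes whose knock-down strengthens or weakens small-RNA reporter silencing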 (primary screen). System: Drosophila S2-derived reporter cells. Knock-down reagent: long dsRNA against Drosophila genes, about 150-250 ng dsRNA per well (siRNA assay); about 80-120 ng (miRNA assay). Timing: about 5 days (siRNA assay); about 4 days (miRNA assay). Treatment: copper sulfate induction of reporters: 25 µM (siRNA assay); 200 mM stated (miRNA assay), 1-2 days before reading. Measured: 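Per-well ratio of Renilla over firefly light, expressed relative to that plate's average ratio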. Active means: 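First-pass picks had plate-scaled ratios over 1.5 for the siRNA assay, over 1.6 for the miRNA assay, or under 0.6; two distinct dsRNAs had to score alike on retest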.
The deposit covers about 23,000 reagents; this is a random part of those that have a named target and a result. Of all reagents, 199 (0.86%) got an active call. 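Plate-scaled ratios behind the calls are not deposited; printed light signals are raw; many rows marked increased or decreased are still called inactive.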 Names joined by + are all predicted targets of the reagent. The record does not give: the direction of the score.

predicted target | amplicon | stable siRNA reporter change | miRNA reporter change | stable assay Renilla, run 1 (luminescence) | stable assay firefly, run 1 (luminescence) | outcome
CG12347 | DRSC14502 | – | – | 7864 | 5.02e5 | inactive
l(2)gl (lethal (2) giant larvae) | DRSC00825 | – | – | 3580 | 4.13e5 | inactive
Uro (Urate oxidase) | DRSC03469 | – | – | 7834 | 5.27e5 | inactive
spn-D (spindle D) | DRSC22641 | – | – | 3851 | 4.32e5 | inactive
alphaTub85E (alpha-Tubulin at 85E) | DRSC16899 | – | – | 5932 | 3.37e5 | inactive
aurA (aurora A) | DRSC16905 | – | – | 6495 | 3.61e5 | inactive
CG15199 | DRSC19646 | – | – | 4527 | 3.40e5 | inactive
Acsf3 (Acyl-CoA synthetase family member 3) | DRSC18146 | – | – | 5556 | 3.06e5 | inactive
ttv (tout-velu) | DRSC07709 | – | – | 7887 | 4.49e5 | inactive
CR18275 (pseudo) | DRSC18151 | reporter ratio lowered past the hit cutoff | – | 5718 | 7.18e5 | inactive
CG31548 | DRSC22640 | – | – | 5328 | 5.56e5 | inactive
Pkd2 (Polycystic kidney disease 2) | DRSC02962 | – | – | 7336 | 4.85e5 | inactive
HBS1 | DRSC08544 | – | – | 9583 | 5.07e5 | inactive
Zip102B (Zinc/iron regulated transporter-related protein 102B) | DRSC17155 | – | – | 4268 | 4.53e5 | inactive
CG11089 + CG31381 | DRSC13690 | – | – | 5672 | 3.27e5 | inactive
CG11089 + CG31381 | DRSC14290 | – | – | 9663 | 3.74e5 | inactive
CG33116 | DRSC02045 | – | reporter ratio lowered past the hit cutoff | 50565 | 1.52e6 | inactive
AlaRS-m (Alanyl-tRNA synthetase, mitochondrial) | DRSC09660 | – | – | 8214 | 3.72e5 | inactive
bgm (bubblegum) | DRSC03495 | – | – | 9158 | 1.86e6 | inactive
Rcd4 (Reduction in Cnn dots 4) | DRSC02597 | – | – | 7534 | 3.61e5 | inactive
Gnpat (Glyceronephosphate O-acyltransferase) | DRSC16960 | – | – | 5859 | 3.15e5 | inactive
hts (hu li tai shao) | DRSC07629 | – | – | 6495 | 2.87e5 | inactive
lama (lamina ancestor) | DRSC11361 | – | – | 7531 | 3.32e5 | inactive
CG14731 | DRSC14952 | – | – | 7086 | 4.88e5 | inactive
lin-52 | DRSC18106 | – | – | 7491 | 4.90e5 | inactive
Xrcc2 (X-ray repair cross complementing 2) | DRSC19984 | – | – | 5882 | 5.28e5 | inactive
ppk19 (pickpocket 19) | DRSC15321 | – | – | 7228 | 4.59e5 | inactive
Boh2 (Buddy of Hmr 2) | DRSC02777 | – | – | 6696 | 3.16e5 | inactive
mRpL3 (mitochondrial ribosomal protein L3) | DRSC20100 | – | – | 4371 | 4.42e5 | inactive
GAPsec (GTPase activating protein, SECIS-dependent read-through) | DRSC10564 | – | – | 7638 | 4.97e5 | inactive

The list goes on (3 carried over from the part before).
predicted target | amplicon | stable siRNA reporter change | miRNA reporter change | stable assay Renilla, run 1 (luminescence) | stable assay firefly, run 1 (luminescence) | outcome
Boh2 (Buddy of Hmr 2) | DRSC02777 | – | – | 6696 | 3.16e5 | inactive
mRpL3 (mitochondrial ribosomal protein L3) | DRSC20100 | – | – | 4371 | 4.42e5 | inactive
GAPsec (GTPase activating protein, SECIS-dependent read-through) | DRSC10564 | – | – | 7638 | 4.97e5 | inactive
CG30458 | DRSC06660 | – | – | 4303 | 4.57e5 | inactive
CG32554 | DRSC22713 | – | – | 3936 | 3.80e5 | inactive
Ugt35C1 (UDP-glycosyltransferase family 35 member C1) | DRSC16080 | – | – | 8018 | 4.14e5 | inactive
Mpi (Mannose phosphate isomerase) | DRSC16417 | – | – | 7070 | 3.24e5 | inactive
PIG-O (Phosphatidylinositol glycan anchor biosynthesis class O) | DRSC06123 | – | – | 9161 | 2.50e5 | inactive
CG13038 | DRSC09919 | – | – | 7390 | 4.42e5 | inactive
CG2611 | DRSC02710 | – | – | 1.09e5 | 2.33e6 | inactive
beta-Spec (beta Spectrin) | DRSC20311 | – | – | 6531 | 4.88e5 | inactive
SIFaR (SIFamide receptor) | DRSC13467 | – | – | 4434 | 4.12e5 | inactive
SIFaR (SIFamide receptor) | DRSC14266 | – | – | 6927 | 3.72e5 | inactive
Pabp2 | DRSC07501 | – | – | 6550 | 3.46e5 | inactive
Ir67b (Ionotropic receptor 67b) | DRSC09876 | – | – | 5892 | 4.38e5 | inactive
CG8042 | DRSC09676 | – | – | 6552 | 3.50e5 | inactive
Atg10 + CG18853 + CG12822 | DRSC20757 | – | – | 4519 | 3.28e5 | inactive
CG6873 | DRSC20014 | – | – | 5947 | 6.40e5 | inactive
Ate1 (Arginyltransferase 1) | DRSC05925 | reporter ratio raised past the hit cutoff | – | 23317 | 4.27e5 | inactive
hng1 (hinge1) | DRSC04555 | – | – | 5.81e5 | 2.92e5 | inactive
Dlish (Dachs ligand with SH3s) | DRSC06016 | – | – | 6484 | 3.35e5 | inactive
CR13656 (pseudo) | DRSC13705 | – | – | 6095 | 5.26e5 | inactive
CR13656 (pseudo) | DRSC14656 | – | – | 7843 | 3.27e5 | inactive
CG14007 | DRSC02339 | – | – | 7899 | 3.60e5 | inactive
ppk28 (pickpocket 28) | DRSC19919 | – | – | 5639 | 4.31e5 | inactive
CG17329 | DRSC01926 | – | – | 7562 | 3.43e5 | inactive
Elp2 (Elongator complex protein 2) | DRSC06095 | – | – | 10354 | 6.25e5 | inactive
CG42372 + CG30100 | DRSC05602 | – | – | 6176 | 5.00e5 | inactive
Duba (Deubiquitinating enzyme A) | DRSC10582 | – | – | 10246 | 4.95e5 | inactive
CG8272 | DRSC07134 | – | – | 7070 | 4.25e5 | inactive
CG34286 | DRSC13372 | – | – | 4319 | 4.35e5 | inactive
CG34286 | DRSC21790 | – | – | 9380 | 4.85e5 | inactive
kl-5 (retired record) | DRSC20707 | – | – | 6564 | 5.48e5 | inactive
kl-5 (retired record) | DRSC20736 | – | – | 3851 | 2.92e5 | inactive
kl-5 (retired record) | DRSC20773 | – | – | 4587 | 3.29e5 | inactive
kl-5 (retired record) | DRSC21161 | – | – | 5563 | 4.66e5 | inactive
CG15706 | DRSC06577 | – | – | 7212 | 3.69e5 | inactive
CG8642 | DRSC07228 | – | – | 6543 | 3.20e5 | inactive
CG12477 | DRSC09886 | – | – | 7411 | 4.51e5 | inactive
CG11841 | DRSC14399 | – | – | 8459 | 6.52e5 | inactive
CG11590 | DRSC19411 | – | – | 5406 | 4.13e5 | inactive
CG11369 | DRSC17779 | – | – | 5699 | 3.15e5 | inactive
CG13308 | DRSC09979 | – | – | 5999 | 3.46e5 | inactive
Stip1 (Stress induced phosphoprotein 1) | DRSC00756 | – | – | 13213 | 8.74e5 | inactive
CG13367 | DRSC18485 | – | – | 7927 | 4.49e5 | inactive
CG13367 | DRSC18486 | – | – | 8017 | 5.35e5 | inactive
Vang (Van Gogh) | DRSC07570 | – | – | 6720 | 3.91e5 | inactive
Rgk3 (Rad, Gem/Kir family member 3) | DRSC04250 | – | – | 7811 | 6.38e5 | inactive
Rgk3 (Rad, Gem/Kir family member 3) | DRSC04251 | – | – | 6759 | 3.76e5 | inactive
Rgk3 (Rad, Gem/Kir family member 3) | DRSC04254 | – | – | 6199 | 3.57e5 | inactive
Rgk3 (Rad, Gem/Kir family member 3) | DRSC04255 | – | – | 7111 | 3.75e5 | inactive
Ca-alpha1T (Ca[2+]-channel protein alpha[[1]] subunit T) | DRSC17842 | – | – | 5794 | 3.17e5 | inactive
Ca-alpha1T (Ca[2+]-channel protein alpha[[1]] subunit T) | DRSC18103 | – | – | 4775 | 3.47e5 | inactive
Ca-alpha1T (Ca[2+]-channel protein alpha[[1]] subunit T) | DRSC18356 | – | – | 5731 | 3.50e5 | inactive
Ca-alpha1T (Ca[2+]-channel protein alpha[[1]] subunit T) | DRSC18357 | – | – | 5891 | 3.59e5 | inactive
Ca-alpha1T (Ca[2+]-channel protein alpha[[1]] subunit T) | DRSC21430 | – | – | 8424 | 4.69e5 | inactive
